The values that follow come from PMC3832380.

The chains behind the UniProt entries cited, without tags or fusion partners. Where a name states a change or a piece, a line headed by the entry shows the natural chain unless it says otherwise.
UniProt O08808: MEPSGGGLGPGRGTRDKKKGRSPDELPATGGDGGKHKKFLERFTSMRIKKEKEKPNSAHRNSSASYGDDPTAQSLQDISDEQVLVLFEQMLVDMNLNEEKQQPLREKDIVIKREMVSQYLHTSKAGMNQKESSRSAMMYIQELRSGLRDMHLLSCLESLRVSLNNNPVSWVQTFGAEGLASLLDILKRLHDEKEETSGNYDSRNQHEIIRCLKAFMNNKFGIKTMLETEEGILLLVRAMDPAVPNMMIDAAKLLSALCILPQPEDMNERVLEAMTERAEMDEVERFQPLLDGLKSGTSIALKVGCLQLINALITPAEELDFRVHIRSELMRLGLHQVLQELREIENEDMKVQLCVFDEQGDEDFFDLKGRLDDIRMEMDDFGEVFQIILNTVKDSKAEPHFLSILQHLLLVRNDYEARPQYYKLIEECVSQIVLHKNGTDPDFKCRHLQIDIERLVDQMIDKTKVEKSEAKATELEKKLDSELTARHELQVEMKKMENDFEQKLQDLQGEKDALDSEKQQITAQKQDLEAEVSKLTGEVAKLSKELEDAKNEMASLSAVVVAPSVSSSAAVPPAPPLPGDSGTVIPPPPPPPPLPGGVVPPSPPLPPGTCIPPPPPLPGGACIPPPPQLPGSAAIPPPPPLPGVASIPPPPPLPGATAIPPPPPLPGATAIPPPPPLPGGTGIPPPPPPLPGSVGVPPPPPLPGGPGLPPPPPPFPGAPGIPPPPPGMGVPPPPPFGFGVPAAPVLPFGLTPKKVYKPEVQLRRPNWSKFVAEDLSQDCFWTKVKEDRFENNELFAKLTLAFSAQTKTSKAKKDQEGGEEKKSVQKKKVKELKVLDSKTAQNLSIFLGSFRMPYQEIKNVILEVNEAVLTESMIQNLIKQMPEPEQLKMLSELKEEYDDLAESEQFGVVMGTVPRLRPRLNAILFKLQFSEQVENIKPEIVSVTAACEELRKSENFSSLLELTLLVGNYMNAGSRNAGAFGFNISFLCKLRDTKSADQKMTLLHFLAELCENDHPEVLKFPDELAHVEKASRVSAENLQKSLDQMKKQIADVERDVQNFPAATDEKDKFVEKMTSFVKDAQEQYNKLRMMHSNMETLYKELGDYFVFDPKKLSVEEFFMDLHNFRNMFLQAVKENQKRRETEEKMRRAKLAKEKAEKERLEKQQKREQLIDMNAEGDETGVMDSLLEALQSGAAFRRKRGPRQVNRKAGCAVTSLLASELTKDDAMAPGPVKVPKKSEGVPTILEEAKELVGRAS
UniProt P24063: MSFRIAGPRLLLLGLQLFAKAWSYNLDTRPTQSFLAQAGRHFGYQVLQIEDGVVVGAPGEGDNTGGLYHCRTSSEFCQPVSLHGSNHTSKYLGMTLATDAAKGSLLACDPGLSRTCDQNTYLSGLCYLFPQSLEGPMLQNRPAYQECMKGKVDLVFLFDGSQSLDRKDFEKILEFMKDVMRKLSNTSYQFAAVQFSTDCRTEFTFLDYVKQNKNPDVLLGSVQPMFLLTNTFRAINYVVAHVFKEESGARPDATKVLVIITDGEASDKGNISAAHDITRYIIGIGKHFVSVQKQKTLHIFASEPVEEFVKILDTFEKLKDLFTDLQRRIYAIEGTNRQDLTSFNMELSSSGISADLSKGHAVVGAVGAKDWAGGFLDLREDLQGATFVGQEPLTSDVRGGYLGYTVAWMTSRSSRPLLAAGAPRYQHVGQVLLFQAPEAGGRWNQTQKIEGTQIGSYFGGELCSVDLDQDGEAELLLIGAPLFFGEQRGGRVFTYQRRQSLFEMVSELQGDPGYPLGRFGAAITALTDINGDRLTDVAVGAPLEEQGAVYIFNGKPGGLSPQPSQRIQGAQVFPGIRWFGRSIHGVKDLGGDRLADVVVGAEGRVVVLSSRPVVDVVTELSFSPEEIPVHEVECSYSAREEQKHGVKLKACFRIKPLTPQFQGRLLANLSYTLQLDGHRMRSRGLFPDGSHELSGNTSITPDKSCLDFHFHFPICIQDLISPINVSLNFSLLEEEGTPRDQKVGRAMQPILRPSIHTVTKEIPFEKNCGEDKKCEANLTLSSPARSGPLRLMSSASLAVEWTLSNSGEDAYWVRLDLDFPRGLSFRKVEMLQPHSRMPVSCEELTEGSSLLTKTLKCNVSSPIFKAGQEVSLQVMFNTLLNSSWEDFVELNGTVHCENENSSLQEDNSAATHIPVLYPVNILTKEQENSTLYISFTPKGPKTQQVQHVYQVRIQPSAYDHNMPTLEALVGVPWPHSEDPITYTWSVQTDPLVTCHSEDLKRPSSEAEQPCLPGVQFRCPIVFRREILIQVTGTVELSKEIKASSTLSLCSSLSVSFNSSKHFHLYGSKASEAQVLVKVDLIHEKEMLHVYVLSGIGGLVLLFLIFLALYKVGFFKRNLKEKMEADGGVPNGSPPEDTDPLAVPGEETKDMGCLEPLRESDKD

These are yes or no findings as the source states them, for the method shown. In cells and extracts the contact can be indirect. Some entries that bind do so weakly or less than the wild type.

In this experiment the target is mammalian diaphanous-related formin 1 (mDia1) (mouse (endogenous in T-lymphoblasts)) (UniProt O08808). The experiment in a line: co-IP; anti-mDia1 antibody (or control IgG) immunoprecipitation from lysates of wild-type T-lymphoblasts plated on ICAM-1 (3 μg/ml) and stimulated with 100 ng/ml CXCL12 for 30 min; lysis buffer 1% Triton X-100, 150 mM KCl, 150 mM NaCl; 4°C; blots with anti-mDia1, anti-GSK3β or anti-LFA-1.

Regarding “lymphocyte function-associated antigen 1 (LFA-1) (from UniProt P24063 24-1162; P11835 24-771) (complex)”, the binding entry was “binds”.
